## Library screen at single concentrations

Sequences of proteins named here, by UniProt entry; tags and fusion partners are left off. Residues count along the entry.
UniProt P9WPC5, whole entry: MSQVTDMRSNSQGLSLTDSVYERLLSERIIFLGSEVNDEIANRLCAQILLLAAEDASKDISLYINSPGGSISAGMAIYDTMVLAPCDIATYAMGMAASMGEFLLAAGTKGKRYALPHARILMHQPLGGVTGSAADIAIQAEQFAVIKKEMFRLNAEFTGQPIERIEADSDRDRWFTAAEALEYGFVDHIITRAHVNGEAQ
UniProt P9WPC3, whole entry partner: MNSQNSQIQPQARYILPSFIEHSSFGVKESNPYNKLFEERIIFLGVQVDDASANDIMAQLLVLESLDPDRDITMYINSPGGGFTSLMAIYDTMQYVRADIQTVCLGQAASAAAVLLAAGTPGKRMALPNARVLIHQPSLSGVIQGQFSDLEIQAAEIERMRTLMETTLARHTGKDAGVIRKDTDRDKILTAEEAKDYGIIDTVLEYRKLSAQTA
UniProt P9WNZ1, whole entry: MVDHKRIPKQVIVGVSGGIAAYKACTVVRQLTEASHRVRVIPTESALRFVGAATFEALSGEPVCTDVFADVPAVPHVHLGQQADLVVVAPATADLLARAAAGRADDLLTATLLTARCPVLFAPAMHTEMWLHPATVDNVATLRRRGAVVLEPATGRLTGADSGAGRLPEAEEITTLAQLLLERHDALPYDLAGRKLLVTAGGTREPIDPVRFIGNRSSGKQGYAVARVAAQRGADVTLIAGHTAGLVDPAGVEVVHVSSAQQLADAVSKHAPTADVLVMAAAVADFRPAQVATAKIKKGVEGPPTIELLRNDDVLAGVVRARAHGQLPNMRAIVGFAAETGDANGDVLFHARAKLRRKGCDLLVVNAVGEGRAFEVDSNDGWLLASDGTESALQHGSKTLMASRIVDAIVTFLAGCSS
UniProt Q8IDJ8, 1-583: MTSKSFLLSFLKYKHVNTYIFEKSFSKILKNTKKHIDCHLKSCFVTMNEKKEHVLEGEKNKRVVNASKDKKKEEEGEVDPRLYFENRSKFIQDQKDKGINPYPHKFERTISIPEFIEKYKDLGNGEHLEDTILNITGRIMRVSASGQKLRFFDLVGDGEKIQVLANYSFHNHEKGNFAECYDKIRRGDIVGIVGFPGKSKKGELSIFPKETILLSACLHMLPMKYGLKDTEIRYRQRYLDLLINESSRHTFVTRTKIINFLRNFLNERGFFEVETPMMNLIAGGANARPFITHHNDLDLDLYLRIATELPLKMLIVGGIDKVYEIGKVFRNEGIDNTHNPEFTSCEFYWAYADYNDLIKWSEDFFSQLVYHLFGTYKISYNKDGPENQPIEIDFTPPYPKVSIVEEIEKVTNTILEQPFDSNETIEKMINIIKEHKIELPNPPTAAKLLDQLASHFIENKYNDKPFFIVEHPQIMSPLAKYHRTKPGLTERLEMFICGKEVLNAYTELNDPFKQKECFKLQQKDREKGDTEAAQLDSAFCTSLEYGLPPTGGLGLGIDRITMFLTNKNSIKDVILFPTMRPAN

Data taken from ChEMBL document CHEMBL3988442, “University of Dundee, Small-Polar-MMV Screening Library” (2021).

ClpP1P2: 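ClpP1P2, Mycobacterium tuberculosis (UniProt P9WPC5 and UniProt P9WPC3). Protease assay of ClpP1P2, read by the AMC dye that it sets free. Concentration: 50 µM. Higher reads as stronger inhibition, judged from the few compounds that gave an IC50. Most other retested compounds had strongly negative values. About 69,000 compounds were tested under these conditions; 0.015% (about 10) showed 50% or more at least once.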
CoaBC: 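Coenzyme A biosynthesis protein CoaBC, Mycobacterium tuberculosis (UniProt P9WNZ1). Enzyme assay of CoaBC with a phosphate dye (Biomol Green) read at 650 nm. Tested at 30 µM. Higher reads as stronger inhibition, judged from the few compounds that gave an IC50. Most strong results did not repeat in a second test. Size under these conditions: about 67,000 compounds, about 40 of them at 50% or above in at least one test.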
PfKRS1: 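Lysine-tRNA ligase, Plasmodium falciparum 3D7 (UniProt Q8IDJ8). Enzyme assay of the cytosolic lysyl-tRNA synthetase in 384-well plates, read by luminescence. Concentration: 30 µM. Higher reads as stronger inhibition, judged from the few compounds that gave an IC50. About 69,000 compounds were tested under these conditions; 0.071% (about 49) showed 50% or more at least once.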
Leishmania in macrophages: 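Cell assay of Leishmania donovani living inside macrophages; the read-out is not stated. Tested at 30 µM. Higher reads as stronger inhibition (inferred: compounds with an IC50 in retests scored well above the rest). About 69,000 compounds were tested under these conditions; 1.5% (about 1,000) showed 50% or more at least once.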

Each number is a percent effect as filed. The controls that fix the scale are not given in the record; negative values are as filed. The compounds are a random part of those screened. A dash means the value is not listed here; it may have been measured.

With CC(C)N1c2sc(-c3ccccc3)nc2CC1C(=O)NC1CCCC1 (stereo not given) the screen gave ClpP1P2: -10.49%; CoaBC: 8.811%; PfKRS1: -0.1943%; Leishmania in macrophages: 16.92%. Result for O=C(CS(=O)(=O)C1CCCC1)NC1CCCc2cc(OC(F)F)ccc21 (stereo not given) was ClpP1P2: -4.846%; CoaBC: 3.782%; PfKRS1: 1.145%; Leishmania in macrophages: 18.11%. With COC[C@]12COC[C@H]1CN(Cc1ccc3c(c1)OCO3)C2 the screen gave ClpP1P2: 0.09779%; CoaBC: -0.1238%; PfKRS1: 1.934%. With Cc1nn(CC(=O)Nc2cccc(F)c2)c(N)c1C#N the screen gave ClpP1P2: -21.28%; CoaBC: 1.709%; PfKRS1: 2.088%; Leishmania in macrophages: -2.635%.

For [H][C@@]12CCN(C(=O)c3cccn3C)C[C@@]1([H])O[C@@H](C)C2 the result was Leishmania in macrophages: -24.22%. CCOCC(=O)NC1(c2cccc(Cl)c2)CC1 gave ClpP1P2: -22.13%; CoaBC: 1.282%; PfKRS1: 1.748%; Leishmania in macrophages: 17.19%. Result for CCCNC(c1cccnc1)c1ccc(F)cc1F (stereo not given) was ClpP1P2: -9.251%; CoaBC: -4.43%; PfKRS1: 0.4119%; Leishmania in macrophages: -21%. Cc1cccc(C(C(=O)N2CC(Oc3ccccc3F)C2)N(C)C)c1 (stereo not given) read ClpP1P2: -13.24%; CoaBC: -15.66%; PfKRS1: 3.277%; Leishmania in macrophages: 16.73%.

With COc1ncccc1CN1C[C@@H]2COC[C@]2(COc2ccccn2)C1 the screen gave ClpP1P2: -2.171%; CoaBC: 5.764%; PfKRS1: 0.8839%. c1ncn(CC2CN(CC3CCCC3)CCO2)n1 (stereo not given) read ClpP1P2: 11.48%; CoaBC: 8.355%; PfKRS1: -3.557%; Leishmania in macrophages: -8.591%. CCC1CCCCN1S(=O)(=O)c1c(C)noc1C (stereo not given) gave ClpP1P2: -8.441%; CoaBC: -10.15%; PfKRS1: 5.801%; Leishmania in macrophages: 22.75%. NC(=O)c1cccc(CCNC(=O)N2CCCC2)c1 gave ClpP1P2: -15.73%; CoaBC: 4.701%; PfKRS1: -0.186%; Leishmania in macrophages: -1.792%.

Result for Cn1cc(N2CC3(CCN(Cc4cccs4)CC3)OCC2=O)cn1 was ClpP1P2: -1.165%; CoaBC: 10.97%; PfKRS1: -7.192%. CN1CCN(Cc2cccc(C#N)c2)Cc2cccnc21 gave ClpP1P2: 8.141%; CoaBC: 3.043%; PfKRS1: 3.53%. Cc1cc(F)cc(S(=O)(=O)NC(=O)CCc2cncc(F)c2)c1 read ClpP1P2: -0.3883%; CoaBC: 5.837%; PfKRS1: 3.959%; Leishmania in macrophages: -1.251%. For CS(=O)(=O)N1CCN(c2ccnc(N3CCCCC3)n2)CC1 the result was ClpP1P2: -3.863%; CoaBC: -1.468%; PfKRS1: 2.746%; Leishmania in macrophages: -11.16%.

[H][C@@]12CN(S(C)(=O)=O)C[C@]1(C(=O)NC)CCC21CCN(C(=O)COC)CC1 gave Leishmania in macrophages: -4.804%. O=C1[C@H]2CN(c3ncc(F)cn3)C[C@H]2CN1CC1CC1 read ClpP1P2: 8.071%; CoaBC: -2.664%; PfKRS1: 8.583%.

Some entries from above, unchanged:

compound	ClpP1P2	CoaBC	PfKRS1	Leishmania in macrophages
CN1CCN(Cc2cccc(C#N)c2)Cc2cccnc21	8.141	3.043	3.53	-
COC[C@]12COC[C@H]1CN(Cc1ccc3c(c1)OCO3)C2	0.09779	-0.1238	1.934	-